Measured values from article PMC12120768.
Results are given in words; binding and its absence hold for the method and conditions named. Binding seen in cells or lysates may run through a third protein. Some entries that bind do so weakly or less than the wild type.

By UniProt entry, the sequences of proteins in these tests, tags left out.
UniProt O75475: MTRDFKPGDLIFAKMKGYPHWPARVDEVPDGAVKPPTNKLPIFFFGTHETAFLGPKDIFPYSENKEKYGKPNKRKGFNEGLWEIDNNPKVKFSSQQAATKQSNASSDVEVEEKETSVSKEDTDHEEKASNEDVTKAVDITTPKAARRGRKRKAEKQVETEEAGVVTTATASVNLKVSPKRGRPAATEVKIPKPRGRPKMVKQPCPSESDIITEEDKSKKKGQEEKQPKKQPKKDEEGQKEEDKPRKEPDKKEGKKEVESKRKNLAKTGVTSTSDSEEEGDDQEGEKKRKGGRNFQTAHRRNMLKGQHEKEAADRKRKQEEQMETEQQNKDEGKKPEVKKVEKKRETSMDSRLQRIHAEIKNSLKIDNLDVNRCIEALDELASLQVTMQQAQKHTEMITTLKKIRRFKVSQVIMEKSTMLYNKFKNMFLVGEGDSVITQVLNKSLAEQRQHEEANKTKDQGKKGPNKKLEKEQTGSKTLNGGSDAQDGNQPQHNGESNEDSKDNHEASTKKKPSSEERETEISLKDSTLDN
UniProt P01106: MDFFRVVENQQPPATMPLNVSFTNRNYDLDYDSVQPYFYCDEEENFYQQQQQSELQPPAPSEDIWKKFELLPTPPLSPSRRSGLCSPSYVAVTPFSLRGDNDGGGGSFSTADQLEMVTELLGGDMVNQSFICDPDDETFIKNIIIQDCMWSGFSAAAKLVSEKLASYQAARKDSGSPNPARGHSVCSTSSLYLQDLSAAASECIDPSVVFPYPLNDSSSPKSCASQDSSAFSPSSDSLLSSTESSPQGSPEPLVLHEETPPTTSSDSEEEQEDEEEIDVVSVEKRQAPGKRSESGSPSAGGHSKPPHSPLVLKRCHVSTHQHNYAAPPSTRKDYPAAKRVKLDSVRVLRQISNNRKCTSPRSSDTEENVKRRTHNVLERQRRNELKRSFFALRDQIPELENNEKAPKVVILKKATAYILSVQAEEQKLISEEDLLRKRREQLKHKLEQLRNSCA

Target: PC4 and SRSF1 interacting protein 1 (human (endogenous in HCC cells)) (UniProt O75475)
Assay: co-IP; cells lysed, proteins incubated with antibodies (PSIP1, Santacruz; c-Myc, Abcam), Protein-A/G magnetic beads, washing and elution, Western blot; Co-Immunoprecipitation Kit (Bersinbio)

With c-Myc (from UniProt P01106 1-454) the binding was “binds”.
